Sequences and labels used below:
T1: Hsp22-3xFLAG (Drosophila) (UniProt P02515)
T1 sequence: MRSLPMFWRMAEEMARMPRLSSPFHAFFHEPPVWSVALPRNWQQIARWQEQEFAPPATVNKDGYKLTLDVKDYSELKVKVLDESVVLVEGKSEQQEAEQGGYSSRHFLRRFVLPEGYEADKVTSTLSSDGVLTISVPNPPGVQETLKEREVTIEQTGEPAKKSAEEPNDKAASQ

The chains behind the UniProt entries cited, without tags or fusion partners. Where a name states a change or a piece, a line headed by the entry shows the natural chain unless it says otherwise.
UniProt Q9VIE8: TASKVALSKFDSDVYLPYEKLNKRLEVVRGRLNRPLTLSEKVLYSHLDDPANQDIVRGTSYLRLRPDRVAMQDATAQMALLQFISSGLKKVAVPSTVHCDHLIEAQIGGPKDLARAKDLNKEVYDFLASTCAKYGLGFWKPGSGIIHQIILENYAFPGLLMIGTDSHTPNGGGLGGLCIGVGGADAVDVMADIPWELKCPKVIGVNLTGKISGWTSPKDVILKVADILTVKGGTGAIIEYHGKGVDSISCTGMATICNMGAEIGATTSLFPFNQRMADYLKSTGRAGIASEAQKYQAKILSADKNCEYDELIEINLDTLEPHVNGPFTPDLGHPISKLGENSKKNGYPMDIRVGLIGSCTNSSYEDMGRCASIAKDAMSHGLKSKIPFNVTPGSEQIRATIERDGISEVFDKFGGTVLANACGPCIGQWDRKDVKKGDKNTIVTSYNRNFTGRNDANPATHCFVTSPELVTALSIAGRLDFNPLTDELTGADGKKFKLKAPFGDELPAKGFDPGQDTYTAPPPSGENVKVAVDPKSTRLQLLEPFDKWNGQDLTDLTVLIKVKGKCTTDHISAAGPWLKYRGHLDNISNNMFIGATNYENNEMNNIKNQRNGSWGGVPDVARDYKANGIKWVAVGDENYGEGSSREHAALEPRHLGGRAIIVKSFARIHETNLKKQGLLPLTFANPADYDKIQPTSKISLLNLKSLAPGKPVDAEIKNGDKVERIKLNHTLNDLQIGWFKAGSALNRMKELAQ

B1: Fer1HCH (protein, UniProt Q7KRU8 20-205)
chain: DFKCSLAVPEITKDWVDMKDACIKGMRNQIQEEINASYQYLAMGAYFSRDTVNRPGFAEHFFKAAKEEREHGSKLVEYLSMRGQLTEGVSDLINVPTVAKQEWTDGAAALSDALDLEIKVTKSIRKLIQTCENKPYNHYHLVDYLTGVYLEEQLHGQRELAGKLTTLKKMMDTNGELGEFLFDKTL
B2: RFeSP, a mitochondrial Rieske iron-sulfur protein (protein, UniProt Q9VQ29 36-230)
chain: AHTDLQVPDFSAYRRESVKDSRRRNDTAEERKAFSYLMVGAGAVGGAYAAKGLVNTFIGSMSASAEVLAMAKIEIKLSDIPEGKSVTFKWRGKPLFIRHRTAAEIETERNVPTSTLRDPEADDQRVIKPEWLVVIGVCTHLGCVPIANAGDWGGYYCPCHGSHYDASGRIRKGPAPLNLEVPTHEFPNEGLLVVG

Results are given in words; binding and its absence hold for the method and conditions named. Binding seen in cells or lysates may run through a third protein. These calls come from enrichment with a bait or labelling near it, and not all partners need be listed. Tags and fused reporters may be left off the sequences shown.

The experiment addresses T1, Hsp22-3xFLAG (Drosophila). The experiment can be described thus: affinity purification with mass spectrometry; 3xFLAG-tagged bait in transfected S2 cells (grown in 1 mM FAC or 120 µM BPS media); lysate (50 mM Tris-HCl pH 7.4, 150 mM NaCl, 1 mM EDTA, 0.1% NP-40) on M2 Flag beads 4 h at 4 °C; SDS gel slices, MALDI-TOF MS.
Turning to “Hsp70 (Drosophila (endogenous in S2 cells))”, the binding result is recorded as “binds”.

As to “mitochondrial Aconitase (from UniProt Q9VIE8)”, the binding entry is “binds”. As for B1, the binding entry is “binds”. The value for B2 was “binds”.

These data come from publication PMC12218971.
